Our source for the binding values is publication PMC8888484, “Ubr1-induced selective endophagy/autophagy protects against the endosomal and Ca^2+-induced proteostasis disease stress” (Cellular and Molecular Life Sciences: CMLS, 2022).

Substitutions are numbered along the chain they refer to. No constants are given. Whether binding was seen depends on the method and setting. In cells and extracts the contact can be indirect. A result given as binding can be weak or reduced; the word gives no strength.

Assay [1] addresses T1, 2HA-MLC1-S280L (human (by the printed GeneID 23209; the paper does not say the species in words)) (UniProt Q15049).
T1 sequence: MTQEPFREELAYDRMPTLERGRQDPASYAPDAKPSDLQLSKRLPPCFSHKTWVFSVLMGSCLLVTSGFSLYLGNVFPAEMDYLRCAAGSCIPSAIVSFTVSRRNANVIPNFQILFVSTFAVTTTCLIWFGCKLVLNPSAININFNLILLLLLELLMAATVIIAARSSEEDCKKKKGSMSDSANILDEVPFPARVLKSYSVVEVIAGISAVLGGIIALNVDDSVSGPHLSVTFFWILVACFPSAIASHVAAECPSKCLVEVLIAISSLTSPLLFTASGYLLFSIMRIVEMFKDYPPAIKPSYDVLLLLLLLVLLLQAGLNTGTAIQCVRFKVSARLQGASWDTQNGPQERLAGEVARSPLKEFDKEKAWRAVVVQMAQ
As to the kind of experiment: cross-linking + co-IP; mild in vivo cross-linking with dithiobis(succinimidyl propionate) 0.05 mM, 10 min, room temperature, then cs-IP of S280L/GlialCAM with anti-GlialCAM Ab without denaturation.

For assay [2], the target named is T1, 2HA-MLC1-S280L (human (by the printed GeneID 23209; the paper does not say the species in words)). As to the kind of experiment: proximity ligation; Duolink PLA between HA (MLC1, anti-HA internalised 30 min in live cells or bound to the surface of fixed cells) or EEA1 and Flag (Ubr1) epitopes in fixed cells.
Assay [3] deals with T2, 2HA-MLC1-P92S (human (by the printed GeneID 23209; the paper does not say the species in words)) (UniProt Q15049).
T2 sequence: T1 sequence with P92S, L280S
Nature of the assay: co-IP; cell surface immunoprecipitation (cs-IP): anti-GlialCAM Ab bound to live HeLa cells 45 min on ice, unbound Ab washed off, lysis (0.4% NP-40 in co-IP assays), MLC1/GlialCAM complex precipitated, Western blot; signals normalised to precipitated MLC1; for Fig. 7G cells with siUbr1 or siNT and Flag-Ubr1-wt or -CI.

Assay [4] has as its target T3, 2HA-MLC1-C326R (human (by the printed GeneID 23209; the paper does not say the species in words)) (UniProt Q15049).
T3 sequence: T1 sequence with L280S, C326R
The description is as above.

As to “Flag-Ubr1-CI (catalytically inactive Ubr1, C1011 mutated to alanine)”, the binding result in assay [1] is “binds weakly”; in assay [2], “binds”.

“Flag-Ubr1-wt (ubiquitin-protein ligase E3 component N-recognin 1)”: the binding result in assay [1] is “binds weakly”; in assay [2] it was “binds”.

Consider “Hsp90 (isoform not told in this experiment) (human (endogenous in HeLa))”, for which the binding result in assay [3] and in assay [4] was “binds” throughout.
